# The supplement of paper PMC10849652
# The chains behind the UniProt entries cited, without tags or fusion partners. Where a name states a change or a piece, a line headed by the entry shows the natural chain unless it says otherwise.
# UniProt Q8N5M1: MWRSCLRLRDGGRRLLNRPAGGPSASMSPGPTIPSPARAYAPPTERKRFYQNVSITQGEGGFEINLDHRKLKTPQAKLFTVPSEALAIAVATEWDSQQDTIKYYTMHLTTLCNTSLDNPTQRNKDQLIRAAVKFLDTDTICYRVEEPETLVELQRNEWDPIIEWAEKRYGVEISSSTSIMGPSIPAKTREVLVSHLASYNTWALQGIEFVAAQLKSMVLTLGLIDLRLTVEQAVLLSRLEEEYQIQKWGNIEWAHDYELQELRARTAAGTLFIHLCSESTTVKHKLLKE
# UniProt P56385: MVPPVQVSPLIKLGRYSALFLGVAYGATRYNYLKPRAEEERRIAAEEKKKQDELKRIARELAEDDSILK
# UniProt O95352: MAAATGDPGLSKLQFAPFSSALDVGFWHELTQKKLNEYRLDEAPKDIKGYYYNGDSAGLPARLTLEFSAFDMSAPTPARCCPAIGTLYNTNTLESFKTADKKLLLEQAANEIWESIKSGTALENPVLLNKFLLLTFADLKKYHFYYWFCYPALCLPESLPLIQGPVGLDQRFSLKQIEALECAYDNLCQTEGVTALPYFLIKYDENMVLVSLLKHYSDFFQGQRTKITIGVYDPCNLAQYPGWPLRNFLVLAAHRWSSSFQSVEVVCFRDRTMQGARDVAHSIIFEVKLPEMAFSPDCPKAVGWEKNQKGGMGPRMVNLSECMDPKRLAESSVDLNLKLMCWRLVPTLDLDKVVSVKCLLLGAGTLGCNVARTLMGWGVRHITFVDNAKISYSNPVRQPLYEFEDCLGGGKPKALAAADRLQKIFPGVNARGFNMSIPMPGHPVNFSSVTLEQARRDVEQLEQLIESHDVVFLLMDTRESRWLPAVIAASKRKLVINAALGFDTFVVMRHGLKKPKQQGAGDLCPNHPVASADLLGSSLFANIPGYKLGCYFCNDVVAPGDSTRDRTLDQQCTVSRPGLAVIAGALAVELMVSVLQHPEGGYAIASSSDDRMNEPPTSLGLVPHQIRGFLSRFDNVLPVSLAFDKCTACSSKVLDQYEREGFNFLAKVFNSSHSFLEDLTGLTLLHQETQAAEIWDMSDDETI
# UniProt Q9Y5K8, whole entry, looked up: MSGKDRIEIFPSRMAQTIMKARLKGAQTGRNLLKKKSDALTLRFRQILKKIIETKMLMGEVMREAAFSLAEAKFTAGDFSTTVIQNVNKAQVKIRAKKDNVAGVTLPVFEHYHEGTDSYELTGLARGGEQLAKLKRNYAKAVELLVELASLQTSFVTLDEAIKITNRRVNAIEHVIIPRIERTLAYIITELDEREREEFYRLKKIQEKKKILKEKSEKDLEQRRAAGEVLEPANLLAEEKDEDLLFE
# UniProt P36404: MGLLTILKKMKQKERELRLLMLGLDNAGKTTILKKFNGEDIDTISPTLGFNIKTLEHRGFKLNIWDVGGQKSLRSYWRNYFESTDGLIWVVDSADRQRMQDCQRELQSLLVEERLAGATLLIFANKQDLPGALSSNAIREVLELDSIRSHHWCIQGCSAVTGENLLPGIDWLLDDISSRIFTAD
# UniProt Q96BY7: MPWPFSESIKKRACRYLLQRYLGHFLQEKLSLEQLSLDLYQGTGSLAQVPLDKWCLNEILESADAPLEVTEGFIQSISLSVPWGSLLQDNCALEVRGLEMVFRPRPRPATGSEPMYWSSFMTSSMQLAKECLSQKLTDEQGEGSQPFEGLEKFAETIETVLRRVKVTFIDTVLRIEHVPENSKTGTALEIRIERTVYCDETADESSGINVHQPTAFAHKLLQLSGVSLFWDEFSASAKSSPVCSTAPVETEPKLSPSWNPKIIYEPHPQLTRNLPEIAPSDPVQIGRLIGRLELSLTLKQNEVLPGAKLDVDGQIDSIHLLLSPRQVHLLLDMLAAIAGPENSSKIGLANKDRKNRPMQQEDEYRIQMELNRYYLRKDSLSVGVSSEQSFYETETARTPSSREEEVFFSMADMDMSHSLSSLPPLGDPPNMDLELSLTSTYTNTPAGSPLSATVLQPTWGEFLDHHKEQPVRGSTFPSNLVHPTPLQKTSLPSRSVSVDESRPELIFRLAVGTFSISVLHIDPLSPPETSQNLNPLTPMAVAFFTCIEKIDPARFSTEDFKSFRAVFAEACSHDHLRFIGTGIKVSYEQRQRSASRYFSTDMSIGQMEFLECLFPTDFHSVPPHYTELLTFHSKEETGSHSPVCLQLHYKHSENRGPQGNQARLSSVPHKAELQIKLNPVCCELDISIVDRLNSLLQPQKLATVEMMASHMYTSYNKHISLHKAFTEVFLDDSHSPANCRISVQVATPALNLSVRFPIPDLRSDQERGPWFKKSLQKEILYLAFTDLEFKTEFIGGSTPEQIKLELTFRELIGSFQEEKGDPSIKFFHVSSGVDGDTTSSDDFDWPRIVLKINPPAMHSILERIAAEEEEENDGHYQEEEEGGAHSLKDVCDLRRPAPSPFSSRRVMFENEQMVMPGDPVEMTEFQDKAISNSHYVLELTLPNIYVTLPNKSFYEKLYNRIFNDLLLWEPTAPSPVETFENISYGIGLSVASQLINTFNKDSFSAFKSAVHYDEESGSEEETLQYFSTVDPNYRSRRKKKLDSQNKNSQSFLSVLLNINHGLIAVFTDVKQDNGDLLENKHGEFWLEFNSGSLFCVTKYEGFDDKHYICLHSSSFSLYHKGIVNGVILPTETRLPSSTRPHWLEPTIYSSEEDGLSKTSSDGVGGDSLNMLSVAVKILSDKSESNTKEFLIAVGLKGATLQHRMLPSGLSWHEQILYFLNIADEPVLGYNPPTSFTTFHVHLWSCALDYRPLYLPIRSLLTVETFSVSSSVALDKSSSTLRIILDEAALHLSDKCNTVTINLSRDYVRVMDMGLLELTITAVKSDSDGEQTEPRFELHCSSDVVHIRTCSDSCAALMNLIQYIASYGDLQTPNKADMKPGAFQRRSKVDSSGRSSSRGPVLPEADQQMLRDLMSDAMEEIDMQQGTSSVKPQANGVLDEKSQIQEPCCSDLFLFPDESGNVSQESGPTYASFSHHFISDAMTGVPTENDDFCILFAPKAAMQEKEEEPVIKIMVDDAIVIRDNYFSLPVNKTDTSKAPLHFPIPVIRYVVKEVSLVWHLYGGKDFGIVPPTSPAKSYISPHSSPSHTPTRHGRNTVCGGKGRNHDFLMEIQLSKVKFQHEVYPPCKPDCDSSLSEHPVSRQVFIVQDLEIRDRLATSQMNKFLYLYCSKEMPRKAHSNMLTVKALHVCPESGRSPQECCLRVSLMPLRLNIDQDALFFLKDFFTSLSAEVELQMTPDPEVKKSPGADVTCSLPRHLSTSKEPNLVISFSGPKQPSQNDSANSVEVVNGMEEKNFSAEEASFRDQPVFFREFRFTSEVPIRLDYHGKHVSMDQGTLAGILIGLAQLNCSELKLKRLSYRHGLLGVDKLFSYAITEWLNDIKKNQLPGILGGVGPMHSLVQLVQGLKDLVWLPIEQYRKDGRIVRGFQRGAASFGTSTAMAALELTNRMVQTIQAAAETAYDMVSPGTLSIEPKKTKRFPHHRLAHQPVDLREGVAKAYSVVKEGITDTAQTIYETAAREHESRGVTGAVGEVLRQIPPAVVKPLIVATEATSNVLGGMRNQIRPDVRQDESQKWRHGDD
# UniProt P38606, whole entry, looked up: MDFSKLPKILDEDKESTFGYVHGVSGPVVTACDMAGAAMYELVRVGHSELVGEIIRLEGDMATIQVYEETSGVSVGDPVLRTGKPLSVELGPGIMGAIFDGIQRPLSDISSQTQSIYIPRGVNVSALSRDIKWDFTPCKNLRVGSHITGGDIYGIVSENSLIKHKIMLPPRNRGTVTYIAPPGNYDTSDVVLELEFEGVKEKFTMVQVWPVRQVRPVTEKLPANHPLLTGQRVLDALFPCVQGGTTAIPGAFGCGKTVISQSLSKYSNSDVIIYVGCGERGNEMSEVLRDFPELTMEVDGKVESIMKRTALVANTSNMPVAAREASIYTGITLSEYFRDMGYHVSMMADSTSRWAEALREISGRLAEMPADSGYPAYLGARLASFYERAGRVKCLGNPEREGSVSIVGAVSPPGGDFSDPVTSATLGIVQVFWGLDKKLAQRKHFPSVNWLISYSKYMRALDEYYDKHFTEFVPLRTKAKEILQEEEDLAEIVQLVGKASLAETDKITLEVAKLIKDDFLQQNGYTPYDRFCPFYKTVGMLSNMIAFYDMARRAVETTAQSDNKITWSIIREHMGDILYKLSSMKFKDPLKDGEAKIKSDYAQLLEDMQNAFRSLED
# UniProt P14415, whole entry, looked up: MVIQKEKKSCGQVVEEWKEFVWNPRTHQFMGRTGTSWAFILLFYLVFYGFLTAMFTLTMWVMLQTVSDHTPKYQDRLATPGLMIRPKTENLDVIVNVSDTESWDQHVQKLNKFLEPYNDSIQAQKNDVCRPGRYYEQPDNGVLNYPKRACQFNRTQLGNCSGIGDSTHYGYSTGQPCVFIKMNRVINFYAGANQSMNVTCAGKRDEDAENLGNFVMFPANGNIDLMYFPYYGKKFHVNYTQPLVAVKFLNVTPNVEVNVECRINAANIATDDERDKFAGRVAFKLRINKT
# UniProt P18859: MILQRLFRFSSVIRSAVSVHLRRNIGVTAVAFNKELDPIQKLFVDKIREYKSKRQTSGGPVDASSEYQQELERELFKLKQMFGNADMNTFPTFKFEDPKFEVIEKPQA
# UniProt O00244: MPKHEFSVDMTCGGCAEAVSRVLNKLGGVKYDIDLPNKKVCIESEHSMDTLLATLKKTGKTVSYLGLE
# UniProt Q6UWY0: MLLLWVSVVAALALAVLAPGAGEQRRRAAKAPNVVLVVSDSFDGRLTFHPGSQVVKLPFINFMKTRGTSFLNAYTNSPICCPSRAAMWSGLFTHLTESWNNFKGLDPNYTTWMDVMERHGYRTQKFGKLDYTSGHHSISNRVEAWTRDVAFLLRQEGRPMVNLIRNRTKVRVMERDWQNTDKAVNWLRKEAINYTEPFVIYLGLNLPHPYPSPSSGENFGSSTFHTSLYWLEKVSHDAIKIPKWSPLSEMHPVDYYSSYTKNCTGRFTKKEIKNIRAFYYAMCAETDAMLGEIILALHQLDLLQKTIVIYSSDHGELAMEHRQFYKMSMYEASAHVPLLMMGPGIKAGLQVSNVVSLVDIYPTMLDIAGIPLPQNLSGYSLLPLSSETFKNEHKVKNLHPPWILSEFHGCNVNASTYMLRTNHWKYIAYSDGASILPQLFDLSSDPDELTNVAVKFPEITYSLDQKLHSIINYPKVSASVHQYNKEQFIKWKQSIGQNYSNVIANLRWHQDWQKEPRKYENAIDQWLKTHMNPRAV
# UniProt Q9UII2: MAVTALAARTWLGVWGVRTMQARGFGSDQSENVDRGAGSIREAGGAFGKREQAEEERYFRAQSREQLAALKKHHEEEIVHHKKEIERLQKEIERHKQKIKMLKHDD
# UniProt P27540, whole entry, looked up: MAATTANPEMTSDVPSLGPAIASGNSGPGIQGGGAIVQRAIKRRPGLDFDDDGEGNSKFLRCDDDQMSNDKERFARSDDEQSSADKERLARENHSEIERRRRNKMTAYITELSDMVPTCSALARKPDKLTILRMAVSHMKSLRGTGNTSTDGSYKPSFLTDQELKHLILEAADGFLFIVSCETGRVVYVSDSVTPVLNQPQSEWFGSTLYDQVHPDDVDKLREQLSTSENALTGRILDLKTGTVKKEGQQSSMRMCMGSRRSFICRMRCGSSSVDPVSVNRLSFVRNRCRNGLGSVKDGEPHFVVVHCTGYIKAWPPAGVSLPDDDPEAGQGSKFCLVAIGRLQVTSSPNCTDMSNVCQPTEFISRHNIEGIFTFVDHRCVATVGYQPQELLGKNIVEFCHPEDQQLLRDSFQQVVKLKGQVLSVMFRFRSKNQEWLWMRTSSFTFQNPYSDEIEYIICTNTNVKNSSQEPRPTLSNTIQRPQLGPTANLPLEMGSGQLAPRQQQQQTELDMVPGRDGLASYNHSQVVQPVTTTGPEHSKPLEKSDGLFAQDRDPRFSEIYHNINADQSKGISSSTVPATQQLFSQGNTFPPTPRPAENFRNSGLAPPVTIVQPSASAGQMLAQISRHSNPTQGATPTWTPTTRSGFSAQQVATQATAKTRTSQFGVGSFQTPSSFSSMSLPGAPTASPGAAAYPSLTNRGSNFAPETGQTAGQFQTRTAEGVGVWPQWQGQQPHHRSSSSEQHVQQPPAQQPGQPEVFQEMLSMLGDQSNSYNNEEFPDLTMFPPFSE
# UniProt P21281, whole entry, looked up: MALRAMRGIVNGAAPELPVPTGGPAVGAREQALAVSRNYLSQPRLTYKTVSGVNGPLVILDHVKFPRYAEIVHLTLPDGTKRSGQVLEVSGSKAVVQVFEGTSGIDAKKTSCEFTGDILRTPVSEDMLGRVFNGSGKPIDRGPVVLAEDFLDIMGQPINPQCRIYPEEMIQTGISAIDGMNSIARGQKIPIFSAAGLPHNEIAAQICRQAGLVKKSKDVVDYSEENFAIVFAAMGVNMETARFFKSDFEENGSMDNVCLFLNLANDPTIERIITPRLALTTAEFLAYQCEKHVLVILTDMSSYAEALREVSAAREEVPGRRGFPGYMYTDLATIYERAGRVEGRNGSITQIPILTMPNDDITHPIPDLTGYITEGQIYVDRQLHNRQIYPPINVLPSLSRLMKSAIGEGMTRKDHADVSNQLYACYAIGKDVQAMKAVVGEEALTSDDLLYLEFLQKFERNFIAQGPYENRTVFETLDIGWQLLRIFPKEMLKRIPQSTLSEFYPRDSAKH
# Some of the results follow.
# Compound: C1=CC=C(C=C1)[C@H](COC2=CC3=C(C=C2)NC(=O)N3)NC(=O)C4=CC=CN(C4=O)CC5=CC(=C(C=C5)F)F
# Assay: log2 fold change, soluble protein after heating vs DMSO (PISA); higher = thermal stabilisation; K562 cells, 10 uM, 30 min; active = over 0.2 and 3.5 SD of the protein, either way, in both replicates (recomputed)
# In short: (§1)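 For each measurement, 10 μM compound was applied for 30 min to K562 cells at 2×10^6 cells/mL. Aliquots were heated for 3 min across 48°C-58°C, pooled, and extracted in PBS with 0.5% NP-40 at 4°C; the supernatant after 21,000xg for 90 min was soluble protein. This was quantified by TMTpro 16plex LC-MS/MS with channel sums equalised, and thermal stability was reported relative to control samples from duplicates, on a log2 fold-change scale.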
row,Target,log2 fold change
1,ARL13B (UniProt Q3SXY8),inactive: 0.081
2,ATPAF2 (UniProt Q8N5M1),inactive: 0.016
3,ATG10 (UniProt Q9H0Y0),inactive: 0.101
4,ATP5F1B (UniProt H0YI37),inactive: 0.176
5,ATP5ME (UniProt P56385),inactive: 0.028
6,ASL (UniProt P04424),inactive: 0.008
7,ASXL1 (UniProt Q8IXJ9),inactive: -0.008
8,ARRB1 isoform 2 (UniProt P49407),inactive: 0.034
9,ARPIN isoform 2 (UniProt Q7Z6K5),inactive: 0.065
10,ATG7 (UniProt O95352),inactive: -0.062
11,ATAD3A isoform 2 (UniProt Q9NVI7),inactive: -0.019
12,ATP6V1D (UniProt Q9Y5K8),inactive: 0.013
13,ARMC8 isoform 6 (UniProt Q8IUR7),inactive: 0.053
14,ASCC3 (UniProt Q8N3C0),inactive: 0.104
15,ARL2 (UniProt P36404),inactive: -0.037
16,ATP5PO (UniProt P48047),inactive: 0.029
17,ASB6 (UniProt Q9NWX5),inactive: -0.065

row,Target,log2 fold change
1,ATP5F1B (UniProt F8W0P7),inactive: 0.275
2,ATP23 (UniProt Q9Y6H3),inactive: -0.023
3,ATG2B (UniProt Q96BY7),inactive: -0.034
4,ATP6V1A (UniProt P38606),inactive: -0.003
5,ATP1B2 (UniProt P14415),inactive: -0.059
6,ATP5PF isoform 2 (UniProt P18859),inactive: 0.033
7,ATOX1 (UniProt O00244),inactive: 0.033
8,ARL5A (UniProt Q9Y689),inactive: -0.002
9,ARPC1B (UniProt O15143),inactive: 0.035
10,ARSK (UniProt Q6UWY0),inactive: -0.143
11,ATP5IF1 (UniProt Q9UII2),inactive: 0.016
12,ATL2 (UniProt Q8NHH9),inactive: -0.019
13,ATP2C1 isoform 3 (UniProt P98194),inactive: -0.076
14,ATAD3B (UniProt Q5T9A4),inactive: -0.02
15,ARNT (UniProt P27540),inactive: -0.157
16,ATP6V1B2 (UniProt P21281),inactive: 0.026

# Compound: CC1=C(SC2=C1C(=N[C@H](C3=NN=C(N32)C)CC(=O)N)C4=CC=C(C=C4)Cl)C
# Assay: as above
# In short: as §1
row,Target,log2 fold change
1,ATPAF2 (UniProt Q8N5M1),inactive: 0.053
2,ATP2B2 (UniProt Q01814),inactive: 0.421
3,ATP5ME (UniProt P56385),inactive: 0.117
4,ASL (UniProt P04424),inactive: -0.02
5,ASXL1 (UniProt Q8IXJ9),inactive: -0.088
6,ARRB1 isoform 2 (UniProt P49407),inactive: 0.031
7,ATG7 (UniProt O95352),inactive: 0.039
8,ATAD3A isoform 2 (UniProt Q9NVI7),inactive: -0.037
9,ATP6V1D (UniProt Q9Y5K8),inactive: -0.008
10,ASCC3 (UniProt Q8N3C0),inactive: 0.023
11,ARL2 (UniProt P36404),inactive: 0.072
12,ATP5PO (UniProt P48047),inactive: -0.027
13,ATP23 (UniProt Q9Y6H3),inactive: -0.031
14,ATG4A (UniProt Q8WYN0),inactive: 0.017
15,ATG2B (UniProt Q96BY7),inactive: 0.035
16,ATP6V1A (UniProt P38606),inactive: 0.008
17,ATP1B2 (UniProt P14415),inactive: -0.048
18,ATP5PF isoform 2 (UniProt P18859),inactive: 0.08
19,ATOX1 (UniProt O00244),inactive: 0.124
20,ARL5A (UniProt Q9Y689),inactive: 0.06
21,ARPC1B (UniProt O15143),inactive: 0.004
22,ASCC2 (UniProt Q9H1I8),inactive: -0.263
23,ARSK (UniProt Q6UWY0),inactive: 0.05
24,ATP5IF1 (UniProt Q9UII2),inactive: -0.087
25,ATL2 (UniProt Q8NHH9),inactive: 0.05
26,ATP2C1 isoform 3 (UniProt P98194),inactive: 0.03
27,ATAD3B (UniProt Q5T9A4),inactive: -0.023
28,ARNT (UniProt P27540),inactive: 0.058
29,ATP6V1B2 (UniProt P21281),inactive: -0.037
30,ATE1 (UniProt O95260),inactive: -0.085

# Compound: CC1=C2C(=CC=C1)N=C(N(C2=O)C3=CC=CC=C3C)CN4C=NC5=C(N=CN=C54)N
# Assay: as above
# In short: as §1
row,Target,log2 fold change
1,ARL13B (UniProt Q3SXY8),inactive: 0.033
2,ATPAF2 (UniProt Q8N5M1),inactive: 0.03
3,ATG10 (UniProt Q9H0Y0),inactive: 0.251
4,ATP5F1B (UniProt H0YI37),inactive: 0.311
5,ATP2B2 (UniProt Q01814),inactive: 0.386
6,ATP5ME (UniProt P56385),inactive: 0.007
7,ASL (UniProt P04424),inactive: 0.013
8,ARRB1 isoform 2 (UniProt P49407),inactive: 0.068
9,ARPIN isoform 2 (UniProt Q7Z6K5),inactive: -0.028
10,ATG7 (UniProt O95352),inactive: 0.01
11,ATAD3A isoform 2 (UniProt Q9NVI7),inactive: -0.052
12,ATP6V1D (UniProt Q9Y5K8),inactive: -0.013
13,ARMC8 isoform 6 (UniProt Q8IUR7),inactive: 0.088
14,ATP8B2 isoform 3 (UniProt P98198),inactive: 0.122
15,ASCC3 (UniProt Q8N3C0),inactive: 0.084
16,ARL2 (UniProt P36404),inactive: 0.015
17,ATP5PO (UniProt P48047),inactive: -0.009
18,ASB6 (UniProt Q9NWX5),inactive: 0.178

row,Target,log2 fold change
1,ATP23 (UniProt Q9Y6H3),inactive: -0.009
2,ATG4A (UniProt Q8WYN0),inactive: -0.12
3,ATG2B (UniProt Q96BY7),inactive: 0.024
4,ATP6V1A (UniProt P38606),inactive: 0.025
5,ATP1B2 (UniProt P14415),inactive: 0.074
6,ATP5PF isoform 2 (UniProt P18859),inactive: -0.001
7,ATOX1 (UniProt O00244),inactive: 0.101
8,ARPC1B (UniProt O15143),inactive: -0.175
9,ASCC2 (UniProt Q9H1I8),inactive: -0.069
10,ARSK (UniProt Q6UWY0),inactive: 0.096
11,ATP5IF1 (UniProt Q9UII2),inactive: -0.031
12,ATL2 (UniProt Q8NHH9),inactive: 0.091
13,ARL6 isoform 2 (UniProt Q9H0F7),inactive: -0.048
14,ATAD3B (UniProt Q5T9A4),inactive: -0.055
15,ARNT (UniProt P27540),inactive: -0.106
16,ATP6V1B2 (UniProt P21281),inactive: -0.014
17,ATE1 (UniProt O95260),inactive: 0.225
